Measured values from article PMC7819943, “Rice protein-binding microarrays: a tool to detect cis-acting elements near promoter regions in rice”.
The other results are listed elsewhere or left out.

Sequences of proteins named here, by UniProt entry; tags and fusion partners are left off.
UniProt Q0JBA9, entry or part of it: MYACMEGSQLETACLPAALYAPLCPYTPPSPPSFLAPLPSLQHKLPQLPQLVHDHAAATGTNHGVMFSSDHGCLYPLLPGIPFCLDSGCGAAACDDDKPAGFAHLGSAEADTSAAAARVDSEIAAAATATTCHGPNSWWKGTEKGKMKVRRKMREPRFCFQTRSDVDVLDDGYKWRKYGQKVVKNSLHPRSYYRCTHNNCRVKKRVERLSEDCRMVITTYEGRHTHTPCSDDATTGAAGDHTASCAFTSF

These sequences were tested against OsWRKY34 (Oryza sativa, UniProt Q0JBA9 1-250) (assay: protein-binding microarray (RPBM); PBS, 2% BSA, 51.3 ng/ul salmon testes DNA, 50 uM zinc acetate, 200 nM TF, 25 C, 1 h; high values mean tight binding). Settings: protein: recombinant; tags: N-terminal polyhistidine and DsRed monomer fusion (pET32a); label: CyDye5-dUTP incorporated in the synthesized complementary strand; 3' TTTTT single-stranded linker to array surface; dsDNA, one strand shown.
In short: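 Transcription factors were made in E. coli BL21-CodonPlus as N-terminal fusions to a polyhistidine tag and DsRed, then purified on Ni–NTA. After primer extension with Cy5-dUTP and blocking with 2% BSA, a custom Agilent array was exposed for 1 h at 25 °C to 200 nM protein in PBS, 2% BSA, salmon testes DNA and 50 µM zinc acetate. Washed arrays were scanned on an Axon 4000B, and the binding signal is per-feature fluorescence intensity in arbitrary units.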

In order of falling binding signal:
1. TGTCAGCCTCGTCCGGCTTCATCCCGTTGCGTCCCATTTTCGGAGTCACCTAGTGCAG  17600 fluorescence intensity (a.u.)
2. GTAGGAGGAGGAGGAGGAGGTGGTGGTGGTGGTGGTGATGCGGAGTCACCTAGTGCAG  15100 fluorescence intensity (a.u.)
3. TCGATAATGACGGGCAACGTAAAAAGTCAACGCACACTCCCGGAGTCACCTAGTGCAG  14600 fluorescence intensity (a.u.)
4. GCCATCTATTCTTCACACCTCATTCAATCCTAGCCATTCACGGAGTCACCTAGTGCAG  13900 fluorescence intensity (a.u.)
5. GTTGTGACCACGAGCTGTTCTCTCTCCCATTCCTCATTTCCGGAGTCACCTAGTGCAG  13400 fluorescence intensity (a.u.)
6. GGAGGTGGGGATGGTGGGGATTGTTGCAGCCTCGCAGTAACGGAGTCACCTAGTGCAG  12400 fluorescence intensity (a.u.)
7. ATACTACTCCTTTGACTCCTCCGCTTTAAAATTTCCCTCTCGGAGTCACCTAGTGCAG  12200 fluorescence intensity (a.u.)
8. GTGAGGGTGTGGTTACAGTGGGTTGGTTTTTTTTCTCCCCCGGAGTCACCTAGTGCAG  11800 fluorescence intensity (a.u.)
9. CTTTTTGTTTTGGCCTTGACGTCGTGTTCACCGCCTCTACCGGAGTCACCTAGTGCAG  11800 fluorescence intensity (a.u.)
10. GCAGCCTTTCTGAAAATATTTGCCACCTTTCACTTGTTCTCGGAGTCACCTAGTGCAG  11200 fluorescence intensity (a.u.)
11. GGGTCTTTTTTTGCTTCGGTTGGTCTTGCCTCTCGCTTAGCGGAGTCACCTAGTGCAG  11200 fluorescence intensity (a.u.)
12. TCTGGTTCCATTTTCCACGCACAGGAGAGTGATTACTTTTCGGAGTCACCTAGTGCAG  11200 fluorescence intensity (a.u.)
13. TTATCTGCCCTTTGTTTGTCCGGTTTTGTTCATGTCCTTACGGAGTCACCTAGTGCAG  11100 fluorescence intensity (a.u.)
14. CGTGTCTCGGCCACAGCCAGTCGTTTACCGCACGTTCACACGGAGTCACCTAGTGCAG  11100 fluorescence intensity (a.u.)
15. CGGGCGGGTCAAGGTCTCCTCCTCTCTCGTCGGCGACCTCCGGAGTCACCTAGTGCAG  10900 fluorescence intensity (a.u.)
16. ACCACCATTCACCAATCACCACCAGTGACCGCGCCGACCACGGAGTCACCTAGTGCAG  10800 fluorescence intensity (a.u.)
17. CCTTTACCTTTTGTTTGTTTTAACATCTCCTAAATTTTACCGGAGTCACCTAGTGCAG  10800 fluorescence intensity (a.u.)
18. GACCTCTTGTGAAACTTTCCTTTGTTGAGGGTATCATGTGCGGAGTCACCTAGTGCAG  10800 fluorescence intensity (a.u.)
19. CATGGTAATGTTTACTCAGTATTTGGGTCTTGTCCTTTCTCGGAGTCACCTAGTGCAG  10500 fluorescence intensity (a.u.)
20. TCTTTGGCTTCTCGTCTACATCGCGTCTAGCTTATAGATACGGAGTCACCTAGTGCAG  10500 fluorescence intensity (a.u.)
21. CCTACCGCAACTTGGCCCGGACAGGCACGCACACGCACATCGGAGTCACCTAGTGCAG  10400 fluorescence intensity (a.u.)
22. GACTGACATTAGGCCCCACATCTCCTCCGGCCCCACACGTCGGAGTCACCTAGTGCAG  10400 fluorescence intensity (a.u.)
23. GGTGTGAGGGTGCTCGTATTTACGGCTAATTATTTTTTTACGGAGTCACCTAGTGCAG  10300 fluorescence intensity (a.u.)
24. CCTCACTCTCGTGGGCTCACCACCTCACCTCGCTATAAGTCGGAGTCACCTAGTGCAG  10200 fluorescence intensity (a.u.)
25. ACACCGGCCGCCGAGCTCGCCTCCTCTCTTGTCGCCCACACGGAGTCACCTAGTGCAG  10100 fluorescence intensity (a.u.)
26. TACTTGTCCAGTTCTTACACTCGTCTCACTTTACTACTCACGGAGTCACCTAGTGCAG  10100 fluorescence intensity (a.u.)
27. TGAGCCTCTCGTGGCCCTTTTTCTTTTCTTTTTTAAAATTCGGAGTCACCTAGTGCAG  10000 fluorescence intensity (a.u.)
28. TTTAAAAAAGTCAACGGCGTTGGGATGGAGGTAGTACCATCGGAGTCACCTAGTGCAG  10000 fluorescence intensity (a.u.)
29. AACTCGTACTCGGTTTGTAGCCCATCTCCGACTCGGATTACGGAGTCACCTAGTGCAG  9930 fluorescence intensity (a.u.)
30. CTAGCTTAATCTTTCTTCGTTGTTCTACATCCTGCTAGTTCGGAGTCACCTAGTGCAG  9860 fluorescence intensity (a.u.)
31. CCATAATGATTTTACTGTTACTGGGATGGCAATATCTTTCCGGAGTCACCTAGTGCAG  9820 fluorescence intensity (a.u.)
32. AAGCTATGCTTCAAGACCATTCATTAGTTTCTTCTTCTTCCGGAGTCACCTAGTGCAG  9820 fluorescence intensity (a.u.)
33. TCGTCATCCTGCATCGTCGATTCCCCACGCCTCGATCTCCCGGAGTCACCTAGTGCAG  9750 fluorescence intensity (a.u.)
34. GGATTCTTCGTCTCCACCACCGCCCTCGACGTCAGATCAGCGGAGTCACCTAGTGCAG  9660 fluorescence intensity (a.u.)
35. AGCAGTTTATTTGTTTCCTGAACATGATTGGGGATTAGACCGGAGTCACCTAGTGCAG  9580 fluorescence intensity (a.u.)
36. GATTCGTTATAGGCCCATCGATCTTACTAATAAAATGATTCGGAGTCACCTAGTGCAG  9550 fluorescence intensity (a.u.)
37. TTCTCACGATTTTTTTCCCCTGTAAATTTCCCGGCGGCTTCGGAGTCACCTAGTGCAG  9500 fluorescence intensity (a.u.)
38. CCGGTGTCATCAATCCAGGCGTCGGGGAGGTCGGGGTCAGCGGAGTCACCTAGTGCAG  9490 fluorescence intensity (a.u.)
39. CATAACTCCTGTTTTAACCCGCCGCTGATCGCGAGAGTCCCGGAGTCACCTAGTGCAG  9300 fluorescence intensity (a.u.)
40. CGTGCTCCGACAATCCCGCCCGTCCATCGCCGCGGCCCCGCGGAGTCACCTAGTGCAG  9290 fluorescence intensity (a.u.)
41. CTCTAATATAAGGGATTTTGACATTTTACTTACACTGTTTCGGAGTCACCTAGTGCAG  9280 fluorescence intensity (a.u.)
42. CTCCTCGTCGGTGTCCTCCTCCTCCGCCGCCGCCTCCGCGCGGAGTCACCTAGTGCAG  9260 fluorescence intensity (a.u.)
43. ATTCAGGATGTTATTTCTCTCATATTTGAGAAGGCTGTTTCGGAGTCACCTAGTGCAG  9190 fluorescence intensity (a.u.)
44. TTGATCATCACTTTTTTTTTCAACGAAAACTTGTTCGTCGCGGAGTCACCTAGTGCAG  9180 fluorescence intensity (a.u.)
45. ACACCATCGCCGCTCGGTCCGCCCCGCTGCCTGATGCCATCGGAGTCACCTAGTGCAG  9150 fluorescence intensity (a.u.)
46. ACGGCCGTGTGTGTGTTCTTGGCGTGTTGGTGTGCGTGGACGGAGTCACCTAGTGCAG  9040 fluorescence intensity (a.u.)
47. TACCGTTTCTATTTCCACCACCGTCGATTATCGTTACTGACGGAGTCACCTAGTGCAG  9040 fluorescence intensity (a.u.)
48. CCCGTTCTGTTCTTGCAAGCGTGAAGCCATTTCCCATTTTCGGAGTCACCTAGTGCAG  9030 fluorescence intensity (a.u.)
49. GACTCGTTAACCACATGTTTTGCACAATGTCACAAGCCATCGGAGTCACCTAGTGCAG  8940 fluorescence intensity (a.u.)
50. GTCGTCCTCCGCGACCGATCCCGTTGCAGATCTCGCGGCCCGGAGTCACCTAGTGCAG  8920 fluorescence intensity (a.u.)
51. AGCCAAAAGGCAGCTGGCCACGTCTAATCTGGTTTCCATCCGGAGTCACCTAGTGCAG  8920 fluorescence intensity (a.u.)
52. CACCCACACACCGACATCGCCAACACACAAGCCCAGGAAACGGAGTCACCTAGTGCAG  8920 fluorescence intensity (a.u.)
53. GGTAAACATTCTCCGTTCAGTTATTAATATTTGATGTTTACGGAGTCACCTAGTGCAG  8910 fluorescence intensity (a.u.)
54. TAGAATTACATCTGATATACCGGTCTTACGCTCTTAGATTCGGAGTCACCTAGTGCAG  8860 fluorescence intensity (a.u.)
55. TTATATGATGTTGTTGACTTTTTGACAAATGTTTAATCATCGGAGTCACCTAGTGCAG  8810 fluorescence intensity (a.u.)
56. TCACAGTTGCTGTCACATGAATACTTTTAACTTTTCTTGCCGGAGTCACCTAGTGCAG  8780 fluorescence intensity (a.u.)
57. CCAATGCCGTCGCCACCCACATCACCACCCGGCGCACTCACGGAGTCACCTAGTGCAG  8730 fluorescence intensity (a.u.)
58. GTTCCATTTGTTTGGAGATCGACATTATACTTTCAGTTTTCGGAGTCACCTAGTGCAG  8720 fluorescence intensity (a.u.)
59. ATGGTGGCCGGCCGGGTGAGGAAGGTGGTGGTGGCGTCGACGGAGTCACCTAGTGCAG  8720 fluorescence intensity (a.u.)
60. AATTTGACTCCCTCAGCAGTTTTGGAGGACGGTTTCACGGCGGAGTCACCTAGTGCAG  8700 fluorescence intensity (a.u.)
61. AAGGGTGTGTTTAGTTGATTGGCTAATTTTTTTTTAAGTACGGAGTCACCTAGTGCAG  8680 fluorescence intensity (a.u.)
62. TAAAGTAGATTAATTCGCCCTATAGCTAGCTTTATTATCACGGAGTCACCTAGTGCAG  8670 fluorescence intensity (a.u.)
63. GCTTATGTGTTCTGGAGCGACCAGGTTCAATGAACCTTCTCGGAGTCACCTAGTGCAG  8650 fluorescence intensity (a.u.)
64. ATTGAGTCGTGTATCGCAGCTGTAGTATTTTTCCCCGACACGGAGTCACCTAGTGCAG  8630 fluorescence intensity (a.u.)
65. CGTTGATCATTTATTGACATTATAGTTACTCTGCAGTGCACGGAGTCACCTAGTGCAG  8580 fluorescence intensity (a.u.)
66. ATATTGTTCTCCTTTCATCTCCCTTTCTATCATTAGTGATCGGAGTCACCTAGTGCAG  8580 fluorescence intensity (a.u.)
67. CTCTCCCGCGCTTTCTCTTCCCGCCATCTCCCTATAAATGCGGAGTCACCTAGTGCAG  8540 fluorescence intensity (a.u.)
68. TTAGTCTATGTTTAATACTTCTAATTAGTGTCCAAACATTCGGAGTCACCTAGTGCAG  8500 fluorescence intensity (a.u.)
69. TTCTCCCTGGAGTACTGGATTCACCCATCCACCTCGTCGACGGAGTCACCTAGTGCAG  8490 fluorescence intensity (a.u.)
70. AGTACACCACATATTAACTCATGGATATCAATAATTGCACCGGAGTCACCTAGTGCAG  8450 fluorescence intensity (a.u.)
71. CCATTAACCAACCTCGCGTCATCTCTCCCATCTCCCATATCGGAGTCACCTAGTGCAG  8450 fluorescence intensity (a.u.)
72. CCCTTCCCTCGCTGCAGCAAATACACTTCGCGAGATCCTCCGGAGTCACCTAGTGCAG  8440 fluorescence intensity (a.u.)
73. CTGTTGTGCAGTCATCCTTCTCCCGGTCTATATCTTCACACGGAGTCACCTAGTGCAG  8400 fluorescence intensity (a.u.)
74. TACCCTTATACCCTTTTTTTTTGTTATATCAATATATAGACGGAGTCACCTAGTGCAG  8380 fluorescence intensity (a.u.)
75. ATTTTGAGTTTTTGATTGCAACGTTTGATCACTCGTCTTACGGAGTCACCTAGTGCAG  8270 fluorescence intensity (a.u.)
76. ATGGGCCTAACAGGTAGACACGTTCGCTCATCTCATTCGTCGGAGTCACCTAGTGCAG  8210 fluorescence intensity (a.u.)
77. GTTGAAGGGGAGCGGGGAGATCGGGGACGGGAGGGACGGCCGGAGTCACCTAGTGCAG  8210 fluorescence intensity (a.u.)
78. TTAGCAATTTCGGCAAAATAGACCAAGCACACGTTTTCTTCGGAGTCACCTAGTGCAG  8170 fluorescence intensity (a.u.)
79. TAATTAACCCTATCCCCATCCCAATCCCCACCTCTCCATCCGGAGTCACCTAGTGCAG  8150 fluorescence intensity (a.u.)
80. ATCTCTTATACCACTGTCTAGGTGACTGCTTCAACCCATACGGAGTCACCTAGTGCAG  8110 fluorescence intensity (a.u.)
81. TTGTCTTTTTTGGTGCTCTATCTGTATCAAGTTTGTTATGCGGAGTCACCTAGTGCAG  8090 fluorescence intensity (a.u.)
82. CCTCCGTTTCAGGTTACAGGACTTTCTAGCATTGCCCACACGGAGTCACCTAGTGCAG  8080 fluorescence intensity (a.u.)
83. CAGCCCGATCCAATCCGTCTCTGGTCTCTCCGGTACAAAACGGAGTCACCTAGTGCAG  8050 fluorescence intensity (a.u.)
84. GTCCTTTTGCAGTGTTCAATAATTGCATGCCACCGAAATTCGGAGTCACCTAGTGCAG  8040 fluorescence intensity (a.u.)
